Literature values as cited in patent US6753021B2, “Biologically active chloroform fraction of an extract obtained from a mangrove plant Salvadora persica L” (Council of Scientific & Industrial Research, priority 2001, dated 2004).
At least one structure is not confirmed: it was looked up by name or label, or the drawing left a doubt.

How the values were obtained:
HIV = settings: H9 lymphocytic cells; Fujioka et al., J. Nat. Prod. 1994; cited from earlier work
[1] = test system: human melanoma, e.g., MEL-1, MEL-2 and MEL-4; settings: Pisha et al., Nature Medicine 1995; cited from earlier work

C=C(C)[C@@H]1CC[C@]2(C(=O)O)CC[C@]3(C)[C@H](CC[C@@H]4[C@@]5(C)CC[C@H](O)C(C)(C)[C@@H]5CC[C@]43C)[C@@H]12 [betulinic acid]
anti-HIV activity (HIV): anti-HIV activity
selective antitumour activity [1]: selective antitumour activity
